Measurements: the supplement of paper PMC3334620
In all, about 33,000 sequences were measured (“E-score (-0.5 to 0.5)”: median about -0.0059, highest 2% from about 0.26 on). Some of the results follow.

The sequences below were run against T1, Cin5 (UniProt P40917) (assay: PBM E-score (8-mer binding enrichment) (E-score (-0.5 to 0.5)); higher = stronger / more preferred TF binding). Conditions: protein concentration: 100 nM; construct: GST-full length.
T1 sequence: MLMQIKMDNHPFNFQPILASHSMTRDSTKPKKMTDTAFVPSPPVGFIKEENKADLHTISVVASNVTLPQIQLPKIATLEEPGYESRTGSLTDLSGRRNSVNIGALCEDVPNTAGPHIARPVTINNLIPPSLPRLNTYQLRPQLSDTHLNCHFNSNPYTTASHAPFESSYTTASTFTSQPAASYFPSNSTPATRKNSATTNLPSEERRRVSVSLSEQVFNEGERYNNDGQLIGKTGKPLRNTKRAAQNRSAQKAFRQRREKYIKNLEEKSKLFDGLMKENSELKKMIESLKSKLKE
Summary of the method: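 Universal all-10-mer Agilent arrays, double-stranded by primer extension on fresh or once-stripped slides, were probed with about 100-200 nM GST-tagged yeast transcription factors made by PURExpress. Fluorescent anti-GST detected bound protein, and masliner normalised the scans. E-scores from the Universal PBM Analysis Suite were given to each ungapped eight-base word pooled with its reverse complement.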

Sequence	PBM E-score
AGGACGAA	0.0753
AGCCAGCT	-0.266
TATCACCA	0.147
AACACCTC	-0.129
CGCATCGA	0.182
CTCGATGA	0.185
GGTACAAA	-0.008
AATTGCCA	0.0197
ATTGTCCG	0.153
CCATAGCG	-0.0236
CCGATATC	0.013
AAGGGCTG	-0.324
GAAGATGC	0.00103
ACGCGGTG	-0.174
AATACAAA	0.342
CAGACAGG	-0.216
GGCGATCA	-0.173
CCTATACC	-0.0604
AGATTGGA	0.0533
CGCCAAAC	-0.072
GGAGGGAA	-0.27
GAACCTAA	0.123
CGAAACAC	0.0883
GACTTCCC	-0.2
CAGGCCTC	-0.287

Sequence	PBM E-score
GCTCGACA	-0.211
CACGATTC	0.0668
AACAAGGC	-0.0877
CGCATAAC	0.195
ATTACGTC	0.371
TATTCCGA	0.158
AACTTGCT	0.0273
ACCTGGAG	-0.0507
TACTGCAA	-0.0141
TACAGTGA	0.0759
AGCAAGGC	-0.0671
CCAATCGC	0.106
TCCAGCCA	-0.285
ACCCTTGG	-0.261
TGCAGGCA	-0.164
AAATGCAT	0.141
ATGACAGG	-0.11
AGATGCTA	-0.0608
ACACGTGG	-0.0534
CTGTCGGA	-0.0806
GGCATAAC	0.079
AACATGGG	0.21
ACAAGTCA	-0.155
CCGTCTCG	0.129
GTGCCGGA	-0.112

Sequence	PBM E-score
CTAGAGGC	-0.13
ATCACGGC	0.102
CGCTTTTA	0.122
GTTCCTGA	-0.0504
AGTGACGC	-0.0619
AATATGAT	0.297
ACGATCGA	0.117
AGTGCAGC	-0.0791
GCTTAACC	-0.0575
AACCACTA	-0.02
GGACGGGA	-0.136
GAGTAAGA	-0.00658
GACGATAC	-0.0571
TCATAGAA	0.0971
GAAAGTAC	0.121
CCACATAC	0.17
ACACTTGA	-0.0609
AGAGCCCC	-0.248
ATAGAAGA	-0.164
GACCAACA	0.209
ACATAGGT	0.0354
GCATCATA	0.0947
ATCACGCC	0.00262
CCTACGCC	-0.167
AGAGCGAG	-0.119

Sequence	PBM E-score
ACACACCA	0.244
GTAGACGA	-0.0708
GATTACGC	0.301
ACCCGGGG	-0.194
TAGTGGGA	-0.101
CCGAGCCA	-0.13
TCAGGAAA	-0.0828
ATATTGGA	0.144
AAGTGATC	-0.019
CTCGGTCA	-0.0681
GCAAATGA	-0.0014
AATTTGCT	0.103
CAAATGCA	-0.0191
TAGTATGA	0.232
CGAAAGAG	-0.0699
AGACAATA	0.279
ACCGCTAA	0.0554
CATTATCA	0.206
AGCGAAAG	0.0415
AATTTAAT	0.192
GCGAGAGC	-0.0714
AGCCTCTG	-0.283
AACTAAGA	0.197
GATCTAGA	0.0166
ACATCCAT	0.0406

Sequence	PBM E-score
CAGGTGTC	-0.0508
CCCAAAGA	-0.0454
GAAAGCGA	0.172
AACTGCTA	0.0485
TACACGCA	-0.0443
TAAGCCAA	0.227
ACACAATA	0.213
GACAGTGA	-0.019
AGAATGTC	0.0183
TACGGACA	-0.042
ATCTTGTA	0.0315
ACCCAGAT	-0.111
ATAAGTCC	-0.0382
GACGTGAC	-0.0315
CGGACGTC	0.0418
GAACCACA	0.188
CGCCATAA	-0.0576
GAGAACAC	0.047
TCGAAGCA	-0.183
CCTGTTCC	-0.0916
ACGGGATG	0.0643
CGTCGCAC	-0.115
CGGTACGC	-0.103
GGGCAGTA	0.0882
GGGTCACA	-0.19

Reformatted as a markdown table: part of the list above.

| Sequence | PBM E-score |
| --- | --- |
| TAGTGGGA | -0.101 |
| CCGAGCCA | -0.13 |
| TCAGGAAA | -0.0828 |
| ATATTGGA | 0.144 |

The results go on:

Sequence	PBM E-score
ATGGCATC	0.155
GGAGCGAA	-0.107
TATTAAGA	-0.0813
ATCTATTC	0.118
GTATTTGA	0.118
AGATTTCA	0.127
ATGACTCA	0.142
CTTCGAAA	-0.0963
AAGTGAGG	-0.0642
CGGTAACC	-0.15
AGTGGCAC	-0.127
AACAGTCA	-0.041
ACAGTCAT	-0.0745
ACCGCTCC	-0.103
ATGAAGAG	0.0835
GTTCAAAC	0.0903
TGGTAGAA	-0.0897
TAAAAGAA	0.0997
CCCTACCG	-0.099
CATACTGC	0.0225
CAGGCGGG	-0.0938
CAAGAATA	0.198
ATCTACGC	0.233
ATGGAAGG	-0.311
GATCCGTA	-0.0139

5 consecutive records out of the list so far, quoted:
Sequence	PBM E-score
ATCTATTC	0.118
GTATTTGA	0.118
AGATTTCA	0.127
ATGACTCA	0.142
CTTCGAAA	-0.0963

Going on with the list.

Sequence	PBM E-score
CCTTGAGC	-0.155
CTTCGATC	0.108
TGCACACA	-0.104
CACAACGG	-0.189
CATGGCCG	0.121
GGAGAGAA	-0.0302
AAACAGGC	-0.18
AAGAACAA	0.197
ATGGTACC	-0.129
GAACCTGC	0.0368
AAGCCGTC	0.0199
ACTGTCAT	0.0864
AGATTTAC	0.173
CACGCCAG	-0.198
AGACTAAA	-0.00675
CTTTACCA	0.0101
CCGTGCCG	-0.0664
ATCCGAGC	0.00034
CCACGAAG	-0.254
CGTACAAA	0.042
AGAATGTG	0.0226
CCTGCCCG	-0.0402
